Among the data in PubChem BioAssay AID493014 (National Center for Advancing Translational Sciences (NCATS), 2011) are AC50 values, retold here.

Structures are written as SMILES. The list shows a part of the results. Shown are side measurements of this screen, not its main read-out; they come without a call. Most of these compounds were active or inconclusive in the main read-out, so they are no random draw. Potencies come from curve fits of mixed quality, noted in brackets.

A short description of the test: qHTS Assay to Find Inhibitors of Chronic Active B-Cell Receptor Signaling. As to conditions: ABC-DLBCL IkBa-CBG/CBR reporter, luminescence ratio (green luciferase fused to IkBa over red control in TMD8 lymphoma cells), 4 h. The source says: NIH Molecular Libraries Probe Production Network [MLPCN] NIH Chemical Genomics Center [NCGC] MLPCN Grant: 1 R03 DA031086-01A1 PI Name: Dr. R. Eric Davis NCGC Assay Overview: Diffuse large B-cell lymphoma (DLBCL) is the most common category of non-Hodgkin lymphoma, with ~20,000 new cases per year in the United States. DLBCL should be regarded as a collection of different neoplasms. Microarray gene expression analysis has defined two principal types of DLBCL, named for their similarity to normal B cell stages or activation states: a germinal center B-cell (GCB) type, and an activated B-cell (ABC) type. In ABC-DLBCL, a constitutive high-level activity of the NF-kappaB family of transcription factors has been observed (1) and NF-kappaB target genes are more highly expressed in ABC primary tumors than in GCB tumors. Functional studies have shown a constitutive high-level activity of the IkappaB (inhibitor of kappa-B) kinase (IKK) complex. […] Further analysis of DLBCL primary tumors for NF-kappaB target gene expression imply that although CARD11 is required for constitutive IKK activity in all ABC-DLBCL lines, mutations in CARD11 may be the root cause of IKK activation only in lines or tumors with such mutations. In other words, CARD11 mutations may explain NF-kappaB activation in only 10% of ABC-DLBCL cases. […] This process has been termed 'chronic active BCR signaling' (CABS). The goal of this screen is to find small-molecule inhibitors of the CABS pathway found in ABC-DLBCL lines using a cell-based assay that measures IkappaBalpa stability, which has already been extensively validated in the OCI-Ly3 line (PubChem AID:445; REF: 4). […] The assay uses green (CBG68) and red (CBR) emitting beetle luciferases [Chroma-GloTM developed by Promega Corp.] where the green luciferase is fused to IkappaBalpha and the red luciferase is present in its native state. Both luciferase genes are stably present in the TMD8 human ABC DLBCL cell line, but their expression is under the control of tetracycline-inducible promoters. Following the addition of doxycycline to induce expression of the luciferases, the green luminescence in control cultures rises only slowly because the CBG fusion partner IkappaBalpha is targeted by IKK activity for rapid degradation. In contrast, green luminescence rises rapidly in the presence of proteasome inhibitors or IKK inhibitors. The rise in red luminescence of CBR is not affected by proteasome or IKK inhibitors, and serves as normalization for cell number and nonspecific effects. Compounds were screened as a concentration-titration series that ranged from 46 uM to 3 nM.
NCGC Assay Protocol Summary: Cells were seeded in 1536-well plates at 5000 cells/4uL in IMDM medium containing 0.5% FBS, w/o phenol red, 1% penicillin/streptomycin. Then, 23 nL of compounds or DMSO were delivered to each well using a pin tool. One uL 20ng/ml doxycycline was then dispensed into white solid 1536-well plates and the plates were incubated at 37C/5% C02 in a cell incubator for 4 hrs. Then 4 uL luminescent substrate mix (in-house prepared: 150 mM Tris-Cl, pH 7.6, 3 mM MgCl2, 1% Triton X-100, 5 mM DTT, 0.2 mM CoA, 0.15 mM ATP, 5 mM D-luciferin, final concentrations) was added to each well. The plate was incubated at r.t. for 10-15 min. The plates were measured on a ViewLux plate reader for green luminescence (540/20 nm filter) and red luminescence (618/8 nm filter). The green and red luminescent signals were corrected for red and green luminescence filter overlap using previously determined filter calibration constants (determined using the procedure outlined in the Promega Technical Manual; REF 4). The %Activity was determined from the ratio of corrected green/red luminescent values. MG132 were used as control. […] Red luminescent %Activity was normalized to the difference between red luminesence in basal cells (0%Activity) and zero luminescence (-100% Activity). […]

Setting [1] is: measured here: CBR red luminescence, cell number.
Setting [2] is: measured here: IkBa-CBG green luminescence.

What is called AC50 is the midpoint of the concentration-response curve, whichever way the signal moves. Turning to `CC(=O)N1CCN(CC(=O)Nc2ccc(C)c(F)c2)CC1`, the concentration at half-maximal activity (AC50) under setting [1] is 7.94 µM [falling, single point]. As to `CC1=[N+](CC(=O)c2ccccc2)CCn2cccc21`, the AC50 under setting [1] was 3.55 µM [rising, partial curve, poor fit]. In the case of `Cc1ccc(S(=O)(=O)N2CCCCC2)cc1C(=O)OC(C)C(=O)NC1CCCCC1C` (stereo not drawn), under setting [1], the concentration at half-maximal activity (AC50) is 2.91 µM [falling, partial curve, poor fit]. The same measure, in the same setting: the value for `COc1c(Cl)cc(Cl)cc1C(=O)Nc1ccc(C(=O)O)cc1` was 7.31 µM [falling, partial curve]; that for `Clc1ccc(-c2nc(Cc3ccccc3Cl)no2)cc1` was 14.1 µM [rising, partial curve, poor fit]. On to `O=C(NN1CCCCC1)c1cccc(COc2ccc(Cl)cc2)c1`, for which, under setting [1], the half-maximal activity concentration (AC50) was 13 µM [falling, partial curve, poor fit]. Still for that read-out and setting: the value for `COc1ccccc1NC(=S)NC(=O)/C=C/c1cccs1` was 3.98 µM [falling, partial curve, poor fit]; that for `O=C(Nc1ccc(-c2csnn2)cc1)C1CC1` was 0.708 µM [rising, full curve, poor fit]. Turning to `CCc1cccc(C)c1NC(=O)c1cc(S(=O)(=O)N(Cc2ccc(C(=O)OC)cc2)Cc2ccc(OC)c(OC)c2)ccc1F`, the AC50 under setting [1] is 0.631 µM [rising, full curve, poor fit].

Turning to `O=C(NC1=NCCS1)c1ccc(C(F)(F)F)cc1`, the AC50 under setting [1] was 2.51 µM [rising, full curve]. `Cc1ccc(NC(=S)N(CCN(C)C)C(C)c2cccnc2)c(C)c1` (stereo not drawn): the AC50 under setting [1] was 0.0891 µM [falling, full curve, poor fit]. For the molecule `COc1cccc(OCc2cc(C(=O)NCc3cnc4ccccn34)no2)c1`, the AC50 under setting [1] was 0.447 µM [falling, full curve, poor fit]. On the same count and under the same terms, the result for `Cc1ccccc1-c1noc(CCC(=O)NCCc2ccccc2)n1` reads 5.62 µM [falling, single point]. As to `Cc1nc(N)sc1-c1csc(Nc2cccc(O)c2)n1`, the AC50 under setting [1] is 11.2 µM [falling, partial curve].

As to `C/C(=N\Nc1ccc([N+](=O)[O-])cc1)c1ccc(-n2nncc2C(C)(C)C)cc1`, the AC50 under setting [1] was 5.8 µM [falling, partial curve, poor fit]. `Cc1ccc([C@@H]2CC=C(C(=O)O)[C@H](c3ccccc3)N2S(=O)(=O)c2ccccc2C)cc1`: the concentration at half-maximal activity (AC50) under setting [1] is 0.291 µM [rising, full curve, poor fit]. Take `O=C(Nc1ccc2c(c1)OCCO2)N1CCOCC1`: under setting [1], the half-maximal activity concentration (AC50) was 0.562 µM [falling, full curve, poor fit]. On to `O=C(O)c1ccc(CSc2nc3ccc(NC(=O)c4ccccc4C(=O)O)cc3s2)cc1`, for which the half-maximal activity concentration (AC50) under setting [1] is 31.6 µM [falling, single point]. Same read-out and setting: the value for `CC(=O)c1cccc(NC(=O)C(C)OC(=O)CNC(=O)c2ccc(C)s2)c1` (stereo not drawn) was 35.5 µM [rising, single point]. As to `C=CC[C@@H](CC(=O)N(CCO)Cc1ccccc1)C(=O)N[C@@H](COC(=O)[C@@H](CC=C)CC(=O)OC(C)(C)C)Cc1c[nH]c2ccccc12`, the AC50 is 18.4 µM [falling, partial curve] under setting [1] and 29.1 µM [rising, partial curve, poor fit] under setting [2]. As for `O=c1c(/C=C(\O)c2ccc(F)cc2)nc2ccccc2n1-c1ccccc1`, the AC50 under setting [1] is 0.326 µM [falling, full curve]. On to `CCn1c(=O)c2c3c(sc2n2cnnc12)CCC3`, for which the AC50 under setting [1] was 20.6 µM [falling, single point]. Consider `CC(=O)C(N=Nc1ccccc1)(Sc1nnc(-c2ccccc2)n1-c1ccccc1)C(C)=O`, for which the AC50 under setting [1] is 7.94 µM [falling, partial curve]. On to `COc1ccc(Cc2nnc(Cl)c3ccccc23)cc1OC`, for which the half-maximal activity concentration (AC50) runs as follows: under setting [1], 17.8 µM [rising, partial curve]; under setting [2], 17.8 µM [falling, partial curve, poor fit]. Regarding `N=c1n(CCO)c2ccccc2n1Cc1ccc(Cl)cc1`, the AC50 under setting [1] was 22.4 µM [falling, single point]. Same read-out and setting: the result for `Cc1ccc(NC(=O)CSc2nc(=O)n(Cc3cccnc3)c3c2CCC3)cc1F` reads 11.2 µM [falling, single point].

`COc1ccc(OCC(=O)Nc2ccc3nc(C)sc3c2)cc1`: the concentration at half-maximal activity (AC50) under setting [1] was 1.78 µM [rising, partial curve, poor fit]. Turning to `COc1ccc(C2Oc3ccccc3C3=C2C(c2cccs2)n2ncnc2N3)cc1` (stereo not drawn), the AC50 is 7.31 µM [falling, partial curve, poor fit] under setting [1] and 11.6 µM [rising, partial curve, poor fit] under setting [2]. On to `c1ccc2c(c1)oc1c(Nc3ccc(CN4CCOCC4)cc3)ncnc12`, for which, under setting [1], the AC50 was 22.4 µM [falling, partial curve, poor fit]. Still for that read-out and setting: the value for `Cc1ccc2nc(N(CCCN(C)C)C(=O)c3ccc(S(=O)(=O)N4CCCCCC4)cc3)sc2c1` was 0.112 µM [rising, full curve, poor fit].
